Assay results: publication doi:10.1101/2022.03.13.484137
These are yes or no findings as the source states them, for the method shown. Binding seen in cells or lysates may run through a third protein. These calls come from enrichment with a bait or labelling near it, and not all partners need be listed. Blank lines part the entries; values can stand above or below the binder they belong to.

Amino acid sequences for entries named in this document (tags omitted).
UniProt P46937: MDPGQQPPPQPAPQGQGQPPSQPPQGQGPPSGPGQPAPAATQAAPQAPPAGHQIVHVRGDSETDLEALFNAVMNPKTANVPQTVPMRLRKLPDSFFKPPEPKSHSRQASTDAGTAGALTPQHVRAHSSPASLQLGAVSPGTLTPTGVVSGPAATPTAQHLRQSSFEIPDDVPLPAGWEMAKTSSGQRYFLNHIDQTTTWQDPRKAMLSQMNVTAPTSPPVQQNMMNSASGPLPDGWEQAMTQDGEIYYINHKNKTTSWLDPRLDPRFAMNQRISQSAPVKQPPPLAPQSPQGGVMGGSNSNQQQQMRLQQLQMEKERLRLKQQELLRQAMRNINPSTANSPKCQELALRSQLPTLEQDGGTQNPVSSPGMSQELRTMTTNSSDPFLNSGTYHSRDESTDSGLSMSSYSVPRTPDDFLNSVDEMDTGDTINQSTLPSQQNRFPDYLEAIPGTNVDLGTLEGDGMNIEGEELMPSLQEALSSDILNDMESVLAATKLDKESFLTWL
UniProt O95835: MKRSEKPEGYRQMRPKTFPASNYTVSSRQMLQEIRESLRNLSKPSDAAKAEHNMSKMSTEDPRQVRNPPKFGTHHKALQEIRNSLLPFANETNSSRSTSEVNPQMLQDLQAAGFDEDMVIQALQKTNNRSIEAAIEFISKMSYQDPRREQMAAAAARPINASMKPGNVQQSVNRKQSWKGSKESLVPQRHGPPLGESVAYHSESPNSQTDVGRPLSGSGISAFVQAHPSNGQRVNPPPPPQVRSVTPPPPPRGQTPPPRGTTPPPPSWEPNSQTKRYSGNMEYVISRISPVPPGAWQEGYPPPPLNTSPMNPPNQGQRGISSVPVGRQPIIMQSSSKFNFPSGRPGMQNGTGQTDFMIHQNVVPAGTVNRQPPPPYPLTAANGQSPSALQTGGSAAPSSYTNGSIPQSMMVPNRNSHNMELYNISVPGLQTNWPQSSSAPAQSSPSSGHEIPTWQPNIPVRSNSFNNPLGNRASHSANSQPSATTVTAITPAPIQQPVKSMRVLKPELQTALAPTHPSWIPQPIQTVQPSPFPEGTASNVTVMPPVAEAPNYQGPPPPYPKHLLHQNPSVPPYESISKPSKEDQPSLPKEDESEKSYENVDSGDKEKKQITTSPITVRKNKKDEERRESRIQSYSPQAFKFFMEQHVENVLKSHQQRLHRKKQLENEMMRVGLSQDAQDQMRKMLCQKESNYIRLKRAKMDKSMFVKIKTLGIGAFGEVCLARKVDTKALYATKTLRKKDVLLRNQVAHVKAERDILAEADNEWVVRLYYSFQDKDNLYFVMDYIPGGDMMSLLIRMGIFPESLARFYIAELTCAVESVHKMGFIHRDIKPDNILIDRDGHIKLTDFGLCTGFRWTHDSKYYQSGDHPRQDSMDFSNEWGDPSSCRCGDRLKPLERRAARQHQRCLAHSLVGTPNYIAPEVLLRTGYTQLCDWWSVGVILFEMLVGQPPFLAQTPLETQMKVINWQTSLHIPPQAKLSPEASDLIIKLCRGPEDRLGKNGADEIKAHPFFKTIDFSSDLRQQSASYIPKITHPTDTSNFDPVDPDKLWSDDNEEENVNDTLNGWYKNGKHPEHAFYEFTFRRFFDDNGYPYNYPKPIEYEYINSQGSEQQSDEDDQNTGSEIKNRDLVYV

Legend:
[1] = substrate: N terminal Strep-HA-tagged YAP1 (human), P46937; experiment: affinity purification with mass spectrometry + native gel or EMSA; conditions: remark: other sources report otherwise
[2] = substrate: N terminal Strep-HA-tagged YAP1 (human), P46937; experiment: affinity purification with mass spectrometry; conditions: remark: other sources report otherwise
[3] = substrate: N terminal Strep-HA-tagged YAP1 (human) (UniProt P46937); experiment: affinity purification with mass spectrometry
[4] = substrate: N terminal Strep-HA-tagged LATS1 (human) (UniProt O95835); experiment: affinity purification with mass spectrometry
[5] = substrate: N terminal Strep-HA-tagged YAP1 (human) (UniProt P46937); experiment: affinity purification with mass spectrometry + native gel or EMSA

binding [1]: binds
binding [2]: binds
B1: TEAD3, Q99594 1-435 (protein)
chain: MASNSWNASSSPGEAREDGPEGLDKGLDNDAEGVWSPDIEQSFQEALAIYPPCGRRKIILSDEGKMYGRNELIARYIKLRTGKTRTRKQVSSHIQVLARKKVREYQVGIKAMNLDQVSKDKALQSMASMSSAQIVSASVLQNKFSPPSPLPQAVFSTSSRFWSSPPLLGQQPGPSQDIKPFAQPAYPIQPPLPPTLSSYEPLAPLPSAAASVPVWQDRTIASSRLRLLEYSAFMEVQRDPDTYSKHLFVHIGQTNPAFSDPPLEAVDVRQIYDKFPEKKGGLKELYEKGPPNAFFLVKFWADLNSTIQEGPGAFYGVSSQYSSADSMTISVSTKVCSFGKQVVEKVETEYARLENGRFVYRIHRSPMCEYMINFIHKLKHLPEKYMMNSVLENFTILQVVTSRDSQETLLVIAFVFEVSTSEHGAQHHVYKLVKD

binding [3]: binds
B2: RASFF8 (protein, UniProt Q8NHQ8 1-419)
chain: MELKVWVDGVQRIVCGVTEVTTCQEVVIALAQAIGRTGRYTLIEKWRDTERHLAPHENPIISLNKWGQYASDVQLILRRTGPSLSERPTSDSVARIPERTLYRQSLPPLAKLRPQIDKSIKRREPKRKSLTFTGGAKGLMDIFGKGKETEFKQKVLNNCKTTADELKKLIRLQTEKLQSIEKQLESNEIEIRFWEQKYNSNLEEEIVRLEQKIKRNDVEIEEEEFWENELQIEQENEKQLKDQLQEIRQKITECENKLKDYLAQIRTMESGLEAEKLQREVQEAQVNEEEVKGKIGKVKGEIDIQGQQSLRLENGIKAVERSLGQATKRLQDKEQELEQLTKELRQVNLQQFIQQTGTKVTVLPAEPIEIEASHADIEREAPFQSGSLKRPGSSRQLPSNLRILQNPISSGFNPEGIYV

binding [4]: binds
B3: PTPN14 (protein, UniProt Q15678 1-1187)
chain: MPFGLKLRRTRRYNVLSKNCFVTRIRLLDSNVIECTLSVESTGQECLEAVAQRLELRETHYFGLWFLSKSQQARWVELEKPLKKHLDKFANEPLLFFGVMFYVPNVSWLQQEATRYQYYLQVKKDVLEGRLRCTLDQVIRLAGLAVQADFGDYNQFDSQDFLREYVLFPMDLALEEAVLEELTQKVAQEHKAHSGILPAEAELMYINEVERLDGFGQEIFPVKDNHGNCVHLGIFFMGIFVRNRIGRQAVIYRWNDMGNITHNKSTILVELINKEETALFHTDDIENAKYISRLFATRHKFYKQNKICTEQSNSPPPIRRQPTWSRSSLPRQQPYILPPVHVQCGEHYSETHTSQDSIFHGNEEALYCNSHNSLDLNYLNGTVTNGSVCSVHSVNSLNCSQSFIQASPVSSNLSIPGSDIMRADYIPSHRHSAIIVPSYRPTPDYETVMRQMKRGILHTDSQSQSLRNLNIINTHAYNQPEDLVYSQPEMRERHPYTVPYGPQGVYSNKLVSPSDQRNPKNNVVPSKPGASAISHTVSTPELANMQLQGSHNYSTAHMLKNYLFRPPPPYPRPRPATSTPDLASHRHKYVSGSSPDLVTRKVQLSVKTFQEDSSPVVHQSLQEVSEPLTATKHHGTVNKRHSLEVMNSMVRGMEAMTLKSLHLPMARRNTLREQGPPEEGSGSHEVPQLPQYHHKKTFSDATMLIHSSESEEEEEEAPESVPQIPMLREKMEYSAQLQAALARIPNKPPPEYPGPRKSVSNGALRQDQASLPPAMARARVLRHGPAKAISMSRTDPPAVNGASLGPSISEPDLTSVKERVKKEPVKERPVSEMFSLEDSIIEREMMIRNLEKQKMAGLEAQKRPLMLAALNGLSVARVSGREENRVDATRVPMDERFRTLKKKLEEGMVFTEYEQIPKKKANGIFSTAALPENAERSRIREVVPYEENRVELIPTKENNTGYINASHIKVVVGGAEWHYIATQGPLPHTCHDFWQMVWEQGVNVIAMVTAEEEGGRTKSHRYWPKLGSKHSSATYGKFKVTTKFRTDSVCYATTGLKVKHLLSGQERTVWHLQYTDWPDHGCPEDVQGFLSYLEEIQSVRRHTNSMLEGTKNRHPPIVVHCSAGVGRTGVLILSELMIYCLEHNEKVEVPMMLRLLREQRMFMIQTIAQYKFVYQVLIQFLQNSRLI

Continued, binder first:

B4: 1433F (protein, UniProt Q04917 1-246)
chain: MGDREQLLQRARLAEQAERYDDMASAMKAVTELNEPLSNEDRNLLSVAYKNVVGARRSSWRVISSIEQKTMADGNEKKLEKVKAYREKIEKELETVCNDVLSLLDKFLIKNCNDFQYESKVFYLKMKGDYYRYLAEVASGEKKNSVVEASEAAYKEAFEISKEQMQPTHPIRLGLALNFSVFYYEIQNAPEQACLLAKQAFDDAIAELDTLNEDSYKDSTLIMQLLRDNLTLWTSDQQDEEAGEGN
binding [3]: binds

B5: AMOTL1 (protein, UniProt Q8IY63 1-956)
chain: MWRAKLRRGTCEPAVKGSPSACYSPSSPVQVLEDSTYFSPDFQLYSGRHETSALTVEATSSIREKVVEDPLCNFHSPNFLRISEVEMRGSEDAAAGTVLQRLIQEQLRYGTPTENMNLLAIQHQATGSAGPAHPTNNFSSTENLTQEDPQMVYQSARQEPQGQEHQVDNTVMEKQVRSTQPQQNNEELPTYEEAKAQSQFFRGQQQQQQQQGAVGHGYYMAGGTSQKSRTEGRPTVNRANSGQAHKDEALKELKQGHVRSLSERIMQLSLERNGAKQHLPGSGNGKGFKVGGGPSPAQPAGKVLDPRGPPPEYPFKTKQMMSPVSKTQEHGLFYGDQHPGMLHEMVKPYPAPQPVRTDVAVLRYQPPPEYGVTSRPCQLPFPSTMQQHSPMSSQTSSASGPLHSVSLPLPLPMALGAPQPPPAASPSQQLGPDAFAIVERAQQMVEILTEENRVLHQELQGYYDNADKLHKFEKELQRISEAYESLVKSTTKRESLDKAMRNKLEGEIRRLHDFNRDLRDRLETANRQLSSREYEGHEDKAAEGHYASQNKEFLKEKEKLEMELAAVRTASEDHRRHIEILDQALSNAQARVIKLEEELREKQAYVEKVEKLQQALTQLQSACEKREQMERRLRTWLERELDALRTQQKHGNGQPANMPEYNAPALLELVREKEERILALEADMTKWEQKYLEESTIRHFAMNAAATAAAERDTTIINHSRNGSYGESSLEAHIWQEEEEVVQANRRCQDMEYTIKNLHAKIIEKDAMIKVLQQRSRKDAGKTDSSSLRPARSVPSIAAATGTHSRQTSLTSSQLAEEKKEEKTWKGSIGLLLGKEHHEHASAPLLPPPPTSALSSIASTTAASSAHAKTGSKDSSTQTDKSAELFWPSMASLPSRGRLSTTPAHSPVLKHPAAKGTAEKLENSPGHGKSPDHRGRVSSLLHKPEFPDGEMMEVLI
binding [5]: binds
